{"source": "paper PMC6529463", "biological_target": "T1, α-ENaC (α subunit of the renal epithelial sodium channel) (mouse (endogenous in mpkCCDc14)) (UniProt Q61180)", "T1 sequence": "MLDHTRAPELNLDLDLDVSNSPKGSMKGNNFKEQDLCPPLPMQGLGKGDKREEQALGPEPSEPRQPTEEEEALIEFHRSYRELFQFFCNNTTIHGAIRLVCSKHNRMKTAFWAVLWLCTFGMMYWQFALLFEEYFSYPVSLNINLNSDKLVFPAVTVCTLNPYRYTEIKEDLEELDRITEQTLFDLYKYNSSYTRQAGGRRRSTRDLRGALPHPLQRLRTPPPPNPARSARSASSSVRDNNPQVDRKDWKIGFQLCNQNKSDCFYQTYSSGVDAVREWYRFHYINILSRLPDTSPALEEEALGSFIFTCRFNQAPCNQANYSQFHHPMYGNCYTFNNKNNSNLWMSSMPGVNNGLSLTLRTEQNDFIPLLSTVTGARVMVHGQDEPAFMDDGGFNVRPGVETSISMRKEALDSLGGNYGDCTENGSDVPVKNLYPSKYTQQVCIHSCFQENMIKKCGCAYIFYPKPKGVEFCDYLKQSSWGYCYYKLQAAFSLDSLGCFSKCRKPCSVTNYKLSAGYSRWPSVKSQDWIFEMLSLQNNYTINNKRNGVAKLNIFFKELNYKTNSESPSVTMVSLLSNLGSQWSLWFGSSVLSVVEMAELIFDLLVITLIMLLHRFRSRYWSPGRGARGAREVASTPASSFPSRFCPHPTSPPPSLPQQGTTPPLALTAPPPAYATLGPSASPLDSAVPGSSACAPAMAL", "experiment": "co-IP; mpkCCDc14 cells with or without E2 (17β-estradiol) stimulation, lysed with NP40 (10 mM Tris-HCl pH 7.4, 10 mM NaCl); 0.5 mg lysate protein with α-ENaC antibody overnight at 4 °C, protein A beads; blotted with derlin-1 antibody", "note": "No constants are given. Whether binding was seen depends on the method and setting. Binding seen in cells or lysates may run through a third protein. Some results given as binding are weak or reduced against the parent protein; the word gives no strength."}
{"binder": "derlin-1 (protein, UniProt Q99J56 1-251) MSDIGDWFRSIPAITRYWFAATVAVPLIGKLGIISPAYFFLWPEAFLYRFQIWRPFTATFYFPVGPGTGFLYLVNLYFLYQYSTRLEAGAFDGRPADYLFMLLFNWICIVITGLAMDMQLLMIPLIMSVLYVWAQLNRDLIVSFWFGTRFKACYLPWVILGFNYIIGGSVINELIGNLVGHLYFFLMFRYPMDLGGRNFLSTPQFLYRWLPSRRGGVSGFGVPPASMRRAADQNGGGGRHNWGQGFRLGDQ", "values": [{"measurement": "binding", "value": "binds"}]}
